According to US12239646B2, “Cancer diagnostic and treatment” (DANA-FARBER CANCER INSTITUTE, INC., priority 2017, dated 2025):
For at least one compound, name, drawing or mass did not settle the structure.

Key:
Fusobacterium species = conditions: background statement on Fusobacterium; cited from earlier work
[1] = system: F. nucleatum strains isolated from COCA36 primary tumor and derived xenografts; assay: Antibiotic sensitivity testing (E-test) of clinical F. nucleatum isolates; type: cell-based, Fusobacterium nucleatum; conditions: E-test on FAA agar, triplicate
Description: FIG. 14: Antibiotic sensitivity testing (E-test) of clinical F. nucleatum isolates. E-test on F. nucleatum strains isolated from COCA36 primary tumor and derived xenografts. All E-tests were carried out in triplicate on both FAA agar. The antibiotics tested were metronidazole (MZ), cefoxitin (FX) and imipenem (IP). All F. nucleatum strains tested were sensitive to cefoxitin and metronidazole in vitro: test range was 0.016 to 256 ug/ml. […] The F. nucleatum strains tested were resistant/hetero-resistant to imipenem in vitro.
A 1 McFarland solution, in TSB, was prepared from Fusobacterium strains grown for 24-48 hours on FAA under anaerobic conditions. Using a sterile cotton swab, each Fusobacterium strain were inoculated onto antibiotic free blood agar (FAA) and E-test strip (bioMérieux) for Metronidazole (MZ), Clindamycin (CM), Cefoxitin (FX) and Imipenem (IP) were incubated for up to 72 hours and sensitivity checked after 48 hours. Each sensitivity assay was conducted in triplicate. An FAA blood plate inoculated with each Fusobacterium strain, but without the E-test strip, was used as a growth control.

| Structure (SMILES) | general susceptibility of the species (Fusobacterium species) | in vitro antibiotic sensitivity (sensitive / resistant) [1] |
| --- | --- | --- |
| CCC[C@@H]1C[C@@H](C(=O)N[C@@H]([C@H]2O[C@H](SC)[C@H](O)[C@@H](O)[C@H]2O)[C@H](C)Cl)N(C)C1 [clindamycin] | susceptible | – |
| C[C@@H](O)[C@H]1C(=O)N2C(C(=O)O)=C(SCCN=CN)C[C@H]12 [imipenem] | – | resistant/hetero-resistant |
